The experiment addresses T1, Carnitine palmitoyltransferase 1A (CPT1A) (human (endogenous in HEK-293T)) (UniProt P50416).
T1 sequence: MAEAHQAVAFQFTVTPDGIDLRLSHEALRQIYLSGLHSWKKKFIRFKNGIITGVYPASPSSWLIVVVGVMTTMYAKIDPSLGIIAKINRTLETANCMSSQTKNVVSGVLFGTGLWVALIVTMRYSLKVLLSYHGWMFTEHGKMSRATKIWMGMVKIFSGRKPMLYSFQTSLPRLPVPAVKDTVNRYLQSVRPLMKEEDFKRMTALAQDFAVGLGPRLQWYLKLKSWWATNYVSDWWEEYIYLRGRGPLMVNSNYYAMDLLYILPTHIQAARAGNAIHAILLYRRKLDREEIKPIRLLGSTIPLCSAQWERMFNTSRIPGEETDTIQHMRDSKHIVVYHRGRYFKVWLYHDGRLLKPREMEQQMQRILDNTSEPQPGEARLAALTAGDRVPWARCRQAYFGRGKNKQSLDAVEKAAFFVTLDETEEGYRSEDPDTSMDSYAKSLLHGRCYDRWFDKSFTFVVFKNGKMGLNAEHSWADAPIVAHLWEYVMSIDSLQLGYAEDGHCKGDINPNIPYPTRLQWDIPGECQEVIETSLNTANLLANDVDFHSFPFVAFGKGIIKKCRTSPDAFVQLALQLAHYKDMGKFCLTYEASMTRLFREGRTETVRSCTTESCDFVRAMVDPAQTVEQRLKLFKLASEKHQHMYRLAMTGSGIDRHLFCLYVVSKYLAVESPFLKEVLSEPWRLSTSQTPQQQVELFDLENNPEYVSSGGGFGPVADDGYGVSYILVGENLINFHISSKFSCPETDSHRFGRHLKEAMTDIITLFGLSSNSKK
Description: co-IP; HEK-293T cells lysed in RIPA buffer with protease inhibitors; CPT1A or IgG antibody overnight at 4°C, protein A agarose beads 2 h at 4°C; precipitate analysed by western blot.

Chains of the proteins cited; added tags and fusions are not shown.
UniProt O43365: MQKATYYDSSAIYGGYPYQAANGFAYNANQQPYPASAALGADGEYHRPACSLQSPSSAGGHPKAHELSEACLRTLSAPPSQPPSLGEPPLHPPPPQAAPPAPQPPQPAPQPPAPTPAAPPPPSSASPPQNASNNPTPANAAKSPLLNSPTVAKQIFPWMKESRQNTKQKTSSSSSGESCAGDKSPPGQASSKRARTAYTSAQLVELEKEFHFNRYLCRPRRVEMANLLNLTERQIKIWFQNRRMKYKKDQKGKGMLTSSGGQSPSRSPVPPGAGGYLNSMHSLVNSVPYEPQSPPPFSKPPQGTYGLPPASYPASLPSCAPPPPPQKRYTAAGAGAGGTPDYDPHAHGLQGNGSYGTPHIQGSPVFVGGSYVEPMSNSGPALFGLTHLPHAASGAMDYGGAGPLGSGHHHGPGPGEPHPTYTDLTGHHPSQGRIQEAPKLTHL

Results are given in words; binding and its absence hold for the method and conditions named. Binding seen in cells or lysates may run through a third protein.

As to HOXA3 (from UniProt O43365 1-443), the binding entry is “no binding”.

These data come from article PMC10950282.
